Source: PubChem BioAssay AID2685 (National Center for Advancing Translational Sciences (NCATS), 2010)
The other results are listed elsewhere or left out. Further columns of the screen follow, without active or inactive calls. Most of these compounds were active or inconclusive in the main read-out, so they are no random draw. Words in brackets tell the shape of the fitted curve; partial curves, single points and poor fits give uncertain potencies.

Assay: qHTS Assay for Lipid Storage Modulators in Drosophila S3 Cells;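 on cell number change: cells counted by Cell Tracker Red CMTPX staining in the red channel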
Settings: BODIPY lipid droplet fluorescence, 18-24 h; for cell number change: measured here: cell count max response, cells fed with added oleic acid
Procedure, shortened: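 Drosophila S3 cells loaded with oleic acid (400 uM, as added) and compounds at several concentrations; lipid droplets imaged by 488-nm laser-scanning cytometry, 500–530 nm intensity and object ratio to cell channel. Percent activity normalized to 20 uM Triacsin C.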

[1] = measured here: cell number channel AC50, cells fed with added oleic acid
[2] = measured here: lipid fluorescence (Fed channel) AC50, cells fed with added oleic acid

| Compound | cell number change | AC50 [1] | AC50 [2] |
| --- | --- | --- | --- |
| Oc1ccccc1-c1nc2ccccc2nc1-c1ccccc1 | 8.54% |  |  |
| COc1ccc(CCN2C(=O)C3C4CC(C5C(C(N)=O)=NOC45)C3C2=O)cc1OC (centres undefined) | -87.2% | 23.1 µM [falling, partial curve, poor fit] | 18.4 µM [falling, partial curve] |
| CC1CCC(NC(=O)COC(=O)c2ccco2)CC1 (centres undefined) | 1.25% |  | 2.06 µM [rising, partial curve] |
| COc1ccccc1N1C(=O)CC1(C#N)c1ccc(OCc2ccccc2)cc1 (centres undefined) | 59% | 29.1 µM [rising, single point] |  |
| NC(=O)CC(NC(=O)Cc1ccc(Br)cc1)c1ccc(NCCc2ccccc2F)c([N+](=O)[O-])c1 (centres undefined) | 17.1% |  | 4.11 µM [rising, single point] |
| CCOC(=O)N1CCC(NC(=O)COc2cc(=O)n(C)c3ccccc23)CC1 | -4.97% |  | 6.51 µM [rising, single point] |
| CCOc1ccc(N(CC(=O)Nc2ccccc2OC)S(C)(=O)=O)cc1 | 15.5% |  |  |
| Cc1cc([N+](=O)[O-])ccc1NC(=O)Cc1ccc(F)cc1 | -32.6% | 7.31 µM [falling, partial curve] |  |
| CCSc1nnc(NC(=O)[C@@H](NC(=O)c2cc(OC)cc(OC)c2)C(C)C)s1 | 20% |  | 29.1 µM [falling, single point] |
| CC1CCN(C(=O)C2(NC(=O)Nc3cccc(F)c3)CCCCC2)CC1 | -6.13% |  | 3.66 µM [falling, partial curve, poor fit] |
| CCOC(=O)c1sc(N)c(C(=O)OCC)c1COC(=O)C1CC(=O)N(Cc2ccco2)C1 (centres undefined) | -10% |  | 1.46 µM [rising, full curve] |
| CCN(CC)S(=O)(=O)c1cccc(NC(=O)CNC2CCCCCC2)c1 | 24.8% |  | 1.3 µM [rising, full curve, poor fit] |
| COc1cc(/C=C/C(=O)O)ccc1OCc1ccccc1C#N | 6.14% |  | 10.3 µM [rising, partial curve, poor fit] |
| Cc1ccc(S(=O)(=O)/N=C(/Nc2c(C)n(C)n(-c3ccccc3)c2=O)c2ccc(Cl)cc2)cc1 | -36% | 5.8 µM [falling, full curve] |  |
| N/C(=N\O)c1ccccc1N1CCCCC1 | 1.69% |  | 29.1 µM [rising, partial curve, poor fit] |
| CN1CCC(=NNC(=O)CN(c2cccc(Cl)c2)S(C)(=O)=O)CC1 | 7.36% |  | 4.61 µM [falling, single point] |
| COCCCN(CC(=O)O)S(=O)(=O)c1cccc(Cl)c1 | -21.3% |  | 6.51 µM [falling, partial curve, poor fit] |
| Cc1[nH]c2ccccc2c1/C=N/Nc1nc2ccccc2[nH]1 | -61.5% | 0.58 µM [falling, full curve] | 0.58 µM [falling, full curve] |
| c1ccc(CSc2nnc3ccc(-c4ccncc4)nn23)nc1 | 5.92% |  |  |
| CN1C/C(=C/c2cccs2)C(=O)/C(=C\c2cccs2)C1 | 0.794% |  | 2.59 µM [falling, partial curve, poor fit] |

An excerpt from above in order of SMILES length, descending:

| Compound | cell number change | AC50 [1] | AC50 [2] |
| --- | --- | --- | --- |
| NC(=O)CC(NC(=O)Cc1ccc(Br)cc1)c1ccc(NCCc2ccccc2F)c([N+](=O)[O-])c1 (centres undefined) | 17.1% |  | 4.11 µM [rising, single point] |
| Oc1ccccc1-c1nc2ccccc2nc1-c1ccccc1 | 8.54% |  |  |
| CC1CCC(NC(=O)COC(=O)c2ccco2)CC1 (centres undefined) | 1.25% |  | 2.06 µM [rising, partial curve] |

The results go on:

| Compound | cell number change | AC50 [1] | AC50 [2] |
| --- | --- | --- | --- |
| Cn1c(O)c(N=NC(=O)c2cc(-c3cccs3)nc3ccccc23)c2ccccc21 | -7.61% |  |  |
| CC(/C=C1\SC(=S)N(CCC(=O)Nc2ccccc2O)C1=O)=C\c1ccccc1 | 19.4% |  | 1.64 µM [rising, partial curve, poor fit] |
| CCOC(=O)c1[nH]c2ccccc2c1NC(=O)Nc1ccc(OC)cc1 |  | 2.59 µM [rising, single point] |  |
| COc1ccc(NS(=O)(=O)c2cccc(NC(=O)CNC(C)=O)c2)cc1 | -19.5% |  | 13 µM [falling, partial curve, poor fit] |
| O=C(Cc1ccc(F)cc1)NCCS(=O)(=O)N1CCN(c2ccccc2)CC1 | -3.55% |  | 0.651 µM [falling, single point] |
| Nc1c(N2CCN(c3ccccc3)CC2)c2ccccc2oc1=O | 18.4% | 1.16 µM [rising, full curve, poor fit] |  |
| COc1ccc(OCC(=O)N/N=C(\CCC(=O)O)c2cccs2)cc1 | 21.3% |  |  |
| COc1cc(OC)cc(C(=O)N2CCN=C2SCc2cccnc2)c1 | 14% |  |  |
| COC(=O)c1ccccc1NC(=O)C1CCN(S(=O)(=O)c2cc(OC)ccc2OC)CC1 | 128% | 7.31 µM [rising, partial curve] | 6.51 µM [rising, single point] |
| Cc1ccc(N(C(=O)CNC(=O)c2ccco2)C(C(=O)NCC2CCCO2)c2ccccc2)c(C)c1 (centres undefined) | -2.08% |  |  |
| Cc1nnsc1C(=O)N1CCN(c2ccc(C#N)cn2)CC1 | -27.9% |  |  |
| Cn1c(N)c(C(=O)CSc2n[nH]c(-c3ccccc3)n2)c(=O)n(C)c1=O | 40.3% | 29.1 µM [rising, single point] |  |
| O=C(O)CC1Sc2nc3ccccc3n2C1=O (centres undefined) | -14% |  | 0.13 µM [falling, full curve] |
| COc1ccc(C(O)P(=O)(OCC(C)C)c2ccc(N(C)C)cc2)c(OC)c1 (centres undefined) | -8.33% |  |  |
| COC(=O)C1=CN(C)C=C(C(=O)OC)C1c1ccsc1 | -26.2% |  | 20.6 µM [falling, partial curve] |
| COc1ccc(C(C)=O)cc1CSc1nc2cc(C(=O)O)ccc2c(=O)n1Cc1ccccc1 | 22.8% |  | 20.6 µM [rising, single point] |
| CCN1C(=O)C(CC(=O)Nc2ccc(OC)cc2)N(CCc2ccc(OC)cc2)C1=S (centres undefined) | -155% | 29.1 µM [falling, single point] | 29.1 µM [falling, single point] |
| CCN(CC)C(=O)CSc1nc(-c2ccc(C)cc2)nc2c1COC(C)(C)C2 | 19.6% | 2.59 µM [rising, single point] | 2.59 µM [rising, full curve] |
| CCCC(=O)n1nc(-c2cccnc2)nc1NCc1ccc(OC)cc1 | -12.3% | 0.58 µM [falling, partial curve, poor fit] | 6.51 µM [falling, single point] |
| O=C(CNC(=O)C(c1ccccc1)c1ccccc1)N/N=C\c1ccc2c(c1)OCO2 |  | 2.06 µM [rising, single point] | 23.1 µM [falling, partial curve, poor fit] |

| Compound | cell number change | AC50 [1] | AC50 [2] |
| --- | --- | --- | --- |
| CC(C)C[C@H](NC(=O)[C@@H]1Cc2c([nH]c3ccccc23)C2c3ccccc3C(=O)N21)C(=O)NCC1CCCO1 (some centres undefined) | -3.24% |  |  |
| COc1ccc(-c2noc(CSc3nc4ccccc4c(=O)n3-c3ccccc3)n2)cc1OC | 125% | 7.31 µM [rising, partial curve] | 7.31 µM [rising, partial curve] |
| COc1ccc(C(=O)N2CCC(n3c(C)nc4cc(F)ccc43)CC2)cc1 | 4.73% | 0.651 µM [rising, single point] | 0.731 µM [rising, single point] |
| CCOC(=O)/C(C)=N/Nc1nc(-c2ccc(NC(C)=O)cc2)cs1 | -15.2% |  | 29.1 µM [falling, single point] |
| COC(=O)c1ccc(COC(=O)CCS(=O)(=O)c2ccc(C)cc2)cc1 | 3.5% | 6.51 µM [rising, single point] |  |
| CCCC(=O)NNC(=O)CC(=O)Nc1ccccc1C(=O)O | -16.9% |  | 1.3 µM [falling, full curve] |
| CC(NC(=O)c1cccnc1)c1ccc2c(c1)OCO2 (centres undefined) | 44.7% | 0.326 µM [rising, full curve] | 8.2 µM [rising, partial curve] |
| COc1ccc([N+](=O)[O-])cc1NC(=O)CC1SC(=Nc2cccc(C)c2C)N(/N=C/c2cccc(OC)c2OC)C1=O (centres undefined) | 32.2% |  |  |
| CCc1cc2c(SCC(=O)NC3CCS(=O)(=O)C3)ncnc2s1 (centres undefined) | -39.2% | 0.184 µM [falling, full curve, poor fit] | 0.58 µM [falling, full curve] |
| O=S1(=O)NC(c2ccccc2)CC(CC2CCCCC2)O1 (centres undefined) | -13.2% |  | 3.26 µM [rising, single point] |
| COC(=O)Nc1ccccc1C(=O)N1CCCCC1 | -64.6% | 29.1 µM [falling, single point] | 29.1 µM [falling, single point] |
| CCc1ccccc1NS(=O)(=O)c1ccc2c(c1)C(C)(C)C(=O)N2C | -9.22% |  |  |
| COc1ccc(C(=O)NNC(=O)C(=O)NC2CCCCC2)cc1 | -17.9% |  |  |
| CN(C)/C=C1\Cc2ccccc2C1=O | 67.7% | 0.00461 µM [rising, full curve, poor fit] |  |
| CCOC(=O)C1=C2N(C)c3ccccc3N2CCC1=O | -40.2% | 0.259 µM [falling, full curve, poor fit] | 3.66 µM [falling, full curve] |
| COC(=O)c1cn(C(=O)c2ccc(Cl)cc2)c2ccccc12 | 19.2% |  | 9.2 µM [rising, partial curve, poor fit] |
| Cc1[nH]c2ccccc2c1SCCNC(=O)c1ccc(Br)o1 | -20% |  | 18.4 µM [falling, single point] |
| O=C1OC(/C=C/c2ccccc2)=NC/1=C/c1ccco1 | -6.94% | 0.0058 µM [falling, full curve, poor fit] |  |
| Cc1csc(SCC(=O)N2CCCC2)n1 | -4.67% |  | 3.26 µM [falling, partial curve] |
| COc1ccc(N(C(=O)COc2ccc(C)cc2)S(=O)(=O)c2ccc(C)cc2)cc1 | 84% | 29.1 µM [rising, single point] | 0.731 µM [falling, single point] |
